Among the data in patent publication US6528303 are binding values, retold here.

These are yes or no findings as the source states them, for the method shown. Some binding calls cover weakened binding; strength is not graded here.

For the experiment, the target named is T1, rat NPY-Y5 receptor (rat) (UniProt Q63634).
T1 sequence: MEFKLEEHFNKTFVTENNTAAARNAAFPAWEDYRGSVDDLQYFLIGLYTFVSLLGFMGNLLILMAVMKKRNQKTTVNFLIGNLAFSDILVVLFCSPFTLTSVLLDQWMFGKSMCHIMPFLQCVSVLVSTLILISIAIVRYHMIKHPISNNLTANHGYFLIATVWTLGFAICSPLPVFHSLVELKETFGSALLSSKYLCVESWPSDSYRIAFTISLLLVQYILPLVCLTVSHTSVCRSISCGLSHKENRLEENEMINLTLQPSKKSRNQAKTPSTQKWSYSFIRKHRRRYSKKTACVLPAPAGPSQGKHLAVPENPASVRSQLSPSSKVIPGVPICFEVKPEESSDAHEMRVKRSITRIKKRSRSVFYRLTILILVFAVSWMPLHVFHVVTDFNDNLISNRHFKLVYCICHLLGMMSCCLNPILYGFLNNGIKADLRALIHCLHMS
Kind of experiment: NPY binding analysis of CHO cell lines stably expressing the rat Y5 receptor.

B1: PP (peptide, UniProt P01298 30-65, looked up)
peptide: APLEPVYPGDNATPEQMAQYAADLRRYINMLTRPRY
As for B1, the binding entry is on record as “binds”.
